Measurements taken from patent US20060110376A1, “MDA-7 and free radicals in the treatment of cancer” (priority 2002, published 2006).
At least one structure is not confirmed: it was looked up by name or label, or the drawing left a doubt.

What was measured:
RT2 cells = experiment: MTT assay with kinase inhibitors; assay type: cell-based, rat
[1] = tested on: RCC cell lines A498 and UOK121N; experiment: Cell death (Giemsa staining, trypan blue); assay type: cell-based, human; conditions: SP600125 10 μM; SB203580 2 μM
Method: Cells were plated in 6 well plates (˜5×10^4 cells/well) and 24 h later treated with GST, GST-MDA-7 (both 0.5 nM) and As2O3 (0.5 μM) as indicated. Where indicated, cells were pre-treated with 10 mM N-acetyl cysteine 1 h prior to addition of As2O3. Cells were isolated 96 h after GST-MDA-7 treatment. Cell death was determined on isolated fixed cells by Giemsa staining for apoptosis and necrosis (presented as a single value) as described (30). Panel A. UOK121N cells. Panel B. A498 cells. […]
Assessment of Apoptosis and Cell Death. […] For each condition, 10 randomly selected fields per slide were evaluated, encompassing at least 15000 cells (Dai et al., 2002, Cell Cycle 1:143-152; Qiao et al., 2001, Mol. Biol. Cell 12:2629-2645). To confirm the results of morphologic analysis, in some cases cells were also evaluated by TUNEL staining and oligonucleosomal DNA fragmentation assay as follows; staining, cytospin slides were fixed with 4% formaldehyde/PBS for 10 min, treated with acetic acid/ethanol (1:2) for 5 min, and incubated with terminal transferase reaction mixture containing 1× terminal transferase reaction buffer, […] terminal transferase, 2.5 mM CoCl2, and 2 pmol fluorescein-12-dUTP (Boehringer Mannheim, Indianapolis, Ind.) at 37° C. for 1 h. […]
Assessment of Cell Viability. […] Cells (˜400) were counted in all four fields of a hemocytometer.

Row | Structure (SMILES) | effect of combined MEK1/2 and PI3K inhibition on proliferation of Ad.mda-7 infected cells (RT2 cells; 10 μm PD98059 + 5 μm LY294002) | effect of single kinase inhibitor on anti-proliferative effects of Ad.mda-7 (RT2 cells; 10 μm PD98059 or 5 μm LY294002) | effect of kinase inhibitor on toxic interaction of GST-MDA-7 and arsenic trioxide [1] | effect on radiosensitizing properties of Ad.mda-7 (RT2 cells; SP600125 10 μM 30 min before irradiation, MTT 4 days)
1 | O=c1cc(N2CCOCC2)oc2c(-c3ccccc3)cccc12 [LY294002] | significant additional reduction in proliferation | neither MEK1/2 nor PI3K enhanced the anti-proliferative effects |  | 
2 | Oc1c2ccccc2c2c3c(cccc13)N=N2 [SP600125] |  |  | abolished the toxic interaction of GST-MDA-7 and arsenic trioxide | abolished the radiosensitizing properties of Ad.mda-7
